Reference: patent US12209086B2, “FGFR3 inhibitor compounds” (ELI LILLY AND COMPANY, priority 2021, dated 2025)
Some of these results come from one statement about several compounds together.

Sequences of proteins named here, by UniProt entry; tags and fusion partners are left off. Residues count along the entry.
UniProt P22607, 23-806: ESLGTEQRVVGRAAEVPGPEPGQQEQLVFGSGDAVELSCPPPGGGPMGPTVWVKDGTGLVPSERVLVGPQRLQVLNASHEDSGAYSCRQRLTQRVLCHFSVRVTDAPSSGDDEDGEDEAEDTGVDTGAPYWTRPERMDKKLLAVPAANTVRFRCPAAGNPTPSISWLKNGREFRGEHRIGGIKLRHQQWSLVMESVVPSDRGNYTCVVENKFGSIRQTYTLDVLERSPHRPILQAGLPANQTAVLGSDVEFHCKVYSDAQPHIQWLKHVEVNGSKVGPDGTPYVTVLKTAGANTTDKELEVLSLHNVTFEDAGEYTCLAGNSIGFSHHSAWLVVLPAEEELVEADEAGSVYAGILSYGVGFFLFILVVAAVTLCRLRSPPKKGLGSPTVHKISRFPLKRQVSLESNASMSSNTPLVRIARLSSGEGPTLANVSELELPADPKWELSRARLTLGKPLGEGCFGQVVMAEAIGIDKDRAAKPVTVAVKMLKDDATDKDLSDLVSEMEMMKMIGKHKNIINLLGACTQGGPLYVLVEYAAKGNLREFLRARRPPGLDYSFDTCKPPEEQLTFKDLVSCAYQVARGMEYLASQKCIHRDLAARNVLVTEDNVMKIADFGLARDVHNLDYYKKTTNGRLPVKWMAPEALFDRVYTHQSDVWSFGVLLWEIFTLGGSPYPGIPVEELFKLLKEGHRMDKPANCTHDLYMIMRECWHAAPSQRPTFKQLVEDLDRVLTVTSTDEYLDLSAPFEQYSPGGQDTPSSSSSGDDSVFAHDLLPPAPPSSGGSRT

Target: T1, FGFR3 protein (Homo sapiens, UniProt P22607)
T1 construct: purchased Reaction Biology 1068
Test: FGFR3 enzyme assay (KinEASE-TK HTRF kinase assay)
Format: biochemical
Conditions: 0.25 nM enzyme, ATP at Km, 15 min pre-incubation on ice, 30 min at 30° C.

IC50, < 0.35 µM:
Cc1c(-c2cc(OC(C)c3cc(C(F)(F)F)cnc3N3CC(O)C3)c3c(C#N)cnn3c2)nnn1C1CCN(C#N)CC1 (stereo not shown) [Example 37, 6-[1-(1-Cyano-4-piperidyl)-5-methyl-triazol-4-yl]-4-[1-[2-(3-hydroxyazetidin-1-yl)-5-(trifluoromethyl)-3-pyridyl]ethoxy]pyrazolo [1,5-a]pyridine-3-carbonitrile]
Cc1c(-c2cc(OC(c3ccc(F)cn3)[C@H](O)CO)c3c(Br)cnn3c2)nnn1C1CCN(C#N)CC1 (stereo partly drawn) [Example 38, 4-[4-[3-Bromo-4-[(2R)-1-(5-fluoro-2-pyridyl)-2,3-dihydroxy-propoxy]pyrazolo[1,5-a]pyridin-6-yl]-5-methyl-triazol-1-yl]piperidine-1-carbonitrile]
COc1cc(-c2cnn(C3CN(C4CCN(C#N)CC4)C3)c2C)cn2ncc(C#N)c12 [Example 168, 4-[3-(4-[3-Cyano-4-methoxypyrazolo[1,5-a]pyridin-6-yl]-5-methylpyrazol-1-yl)azetidin-1-yl]piperidine-1-carbonitrile]
Cc1c(-c2cc(O[C@H](C)c3ccccn3)c3c(C#N)cnn3c2)nnn1C1CCN(C#N)CC1 [Example 169, 4-(4-[3-Cyano-4-[(1R)-1-(pyridin-2-yl)ethoxy]pyrazolo[1,5-a]pyridin-6-yl]-5-methyl-1,2,3-triazol-1-yl)piperidine-1-carbonitrile]
Cc1c(-c2cc(O[C@H](C)c3ccc(F)cn3)n3c(C#N)cnc3c2)nnn1C1CCN(C#N)CC1 [Example 170, 4-(4-[3-Cyano-5-[(1R)-1-(5-fluoropyridin-2-yl)ethoxy]imidazo[1,2-a]pyridin-7-yl]-5-methyl-1,2,3-triazol-1-yl)piperidine-1-carbonitrile]
COc1cc(-c2cnn(C3CC4(CCN(C#N)CC4)C3)c2C)cn2ncc(C#N)c12 [Example 171, 2-(4-[3-Cyano-4-methoxypyrazolo[1,5-a]pyridin-6-yl]-5-methylpyrazol-1-yl)-7-azaspiro[3.5]nonane-7-carbonitrile]
COc1cc(-c2cnn([C@@H]3CCCN(C#N)C3)c2C)cn2ncc(C#N)c12 [Example 174, (3R)-3-(4-[3-Cyano-4-methoxypyrazolo[1,5-a]pyridin-6-yl]-5-methylpyrazol-1-yl)piperidine-1-carbonitrile]
CC[C@@H](Oc1cc(-c2cnn(C3CCN(C#N)CC3)c2C)cn2ncc(C#N)c12)c1ccccn1 [Example 175, 4-(4-[3-Cyano-4-[(1R)-1-(pyridin-2-yl)propoxy]pyrazolo [1,5-a]pyridin-6-yl]-5-methylpyrazol-1-yl)piperidine-1-carbonitrile]
Cc1c(-c2cc(O[C@H](C)c3ccn(C)n3)c3c(C#N)cnn3c2)cnn1C1CCN(C#N)CC1 [Example 176, 4-(4-[3-Cyano-4-[(1R)-1-(1-methylpyrazol-3-yl)ethoxy]pyrazolo [1,5-a]pyridin-6-yl]-5-methylpyrazol-1-yl)piperidine-1-carbonitrile]
COc1cc(-c2cnn([C@H]3C[C@@H](C)N(C#N)C3)c2C)cn2ncc(C#N)c12 [Example 177, (2R,4S)-4-(4-[3-Cyano-4-methoxypyrazolo[1,5-a]pyridin-6-yl]-5-methylpyrazol-1-yl)-2-methylpyrrolidine-1-carbonitrile]
Cc1c(-c2cc(O[C@H](C)C(F)(F)F)c3c(C#N)cnn3c2)cnn1C1CCN(C#N)CC1 [Example 178, 4-[4-(3-Cyano-4-[[(2R)-1,1,1-trifluoropropan-2-yl]oxy]pyrazolo[1,5-a]pyridin-6-yl)-5-methylpyrazol-1-yl]piperidine-1-carbonitrile]
Cc1c(-c2cc(OC(C)C)c3c(C#N)cnn3c2)cnn1C1CCN(C#N)CC1 [Example 181, 4-(4-[3-Cyano-4-isopropoxypyrazolo [1,5-a]pyridin-6-yl]-5-methylpyrazol-1-yl) piperidine-1-carbonitrile]
COc1cc(-c2cnn([C@H]3CCCN(C#N)C3)c2C)cn2ncc(C#N)c12 [Example 182, (3S)-3-(4-[3-Cyano-4-methoxypyrazolo[1,5-a]pyridin-6-yl]-5-methylpyrazol-1-yl)piperidine-1-carbonitrile]
COc1cc(-c2cnn([C@H]3C[C@H]4CC[C@@H](C3)N4C#N)c2C)cn2ncc(C#N)c12 [Example 183, 6-(1-((1R,3r,5S)-8-Cyano-8-azabicyclo[3.2.1]octan-3-yl)-5-methyl-1H-pyrazol-4-yl)-4-methoxypyrazolo[1,5-a]pyridine-3-carbonitrile]
COc1cc(-c2cnn([C@@H]3C[C@H]4CC[C@@H](C3)N4C#N)c2C)cn2ncc(C#N)c12 [Example 184, 6-(1-((1R,3s,5S)-8-Cyano-8-azabicyclo[3.2.1]octan-3-yl)-5-methyl-1H-pyrazol-4-yl)-4-methoxypyrazolo[1,5-a]pyridine-3-carbonitrile]
COc1cc(-c2cnn(C3CCN([C@H]4CCN(C#N)C4)CC3)c2C)cn2ncc(C#N)c12 [Example 185, 6-[1-[1-[(3S)-1-Cyanopyrrolidin-3-yl]-4-piperidyl]-5-methyl-pyrazol-4-yl]-4-methoxy-pyrazolo[1,5-a]pyridine-3-carbonitrile]
COc1cc(-c2cn(C3CCN(C#N)CC3)nc2C)cn2ncc(C#N)c12 [Example 186, 4-(4-[3-Cyano-4-methoxypyrazolo[1,5-a]pyridin-6-yl]-3-methylpyrazol-1-yl)piperidine-1-carbonitrile]
Cc1c(-c2cc(O[C@H](C)c3ncccc3F)c3c(C#N)cnn3c2)cnn1C1CCN(C#N)CC1 [Example 187, 4-(4-[3-Cyano-4-[(1R)-1-(3-fluoropyridin-2-yl)ethoxy]pyrazolo [1,5-a]pyridin-6-yl]-5-methylpyrazol-1-yl)piperidine-1-carbonitrile]
Cc1c(-c2cc(O[C@H](C)c3cnccn3)c3c(C#N)cnn3c2)cnn1C1CCN(C#N)CC1 [Example 188, 4-(4-[3-Cyano-4-[(1R)-1-(pyrazin-2-yl)ethoxy]pyrazolo [1,5-a]pyridin-6-yl]-5-methylpyrazol-1-yl)piperidine-1-carbonitrile]
Cc1c(-c2cc(O[C@H](C)c3ccnn3C)c3c(C#N)cnn3c2)cnn1C1CCN(C#N)CC1 [Example 189, 4-(4-[3-Cyano-4-[(1R)-1-(2-methylpyrazol-3-yl)ethoxy]pyrazolo [1,5-a]pyridin-6-yl]-5-methylpyrazol-1-yl)piperidine-1-carbonitrile]
Cc1c(-c2cc(O[C@H](C)c3ccccn3)n3c(C#N)cnc3c2)cnn1C1CCN(C#N)CC1 [Example 190, 4-(4-[3-Cyano-5-[(1R)-1-(pyridin-2-yl)ethoxy]imidazo [1,2-a]pyridin-7-yl]-5-methylpyrazol-1-yl)piperidine-1-carbonitrile]
COc1cc(-c2cnn([C@@H]3C[C@H](C)N(C#N)C3)c2C)cn2ncc(C#N)c12 [Example 191, 6-(1-((3R,5S)-1-Cyano-5-methylpyrrolidin-3-yl)-5-methyl-1H-pyrazol-4-yl)-4-methoxypyrazolo [1,5-a]pyridine-3-carbonitrile]
COc1cc(-c2cnn([C@H]3C[C@H](C)N(C#N)C3)c2C)cn2ncc(C#N)c12 [Example 192, 6-(1-((3S,5S)-1-cyano-5-methylpyrrolidin-3-yl)-5-methyl-1H-pyrazol-4-yl)-4-methoxypyrazolo [1,5-a]pyridine-3-carbonitrile]
Cc1c(-c2cc(O[C@H](C)C3CC3)c3c(C#N)cnn3c2)cnn1C1CCN(C#N)CC1 [Example 193, 4-(4-[3-Cyano-4-[(1R)-1-cyclopropylethoxy]pyrazolo[1,5-a]pyridin-6-yl]-5-methylpyrazol-1-yl)piperidine-1-carbonitrile]
Cc1c(-c2cc(O[C@@H](C)C(F)(F)F)c3c(C#N)cnn3c2)cnn1C1CCN(C#N)CC1 [Example 194, 4-[4-(3-Cyano-4-[[(2S)-1,1,1-trifluoropropan-2-yl]oxy]pyrazolo[1,5-a]pyridin-6-yl)-5-methylpyrazol-1-yl]piperidine-1-carbonitrile]
Cc1c(-c2cc(O[C@H](C)C3CCC3)c3c(C#N)cnn3c2)cnn1C1CCN(C#N)CC1 [Example 195, 4-(4-[3-cyano-4-[(1R)-1-cyclobutylethoxy]pyrazolo[1,5-a]pyridin-6-yl]-5-methylpyrazol-1-yl)piperidine-1-carbonitrile]
Cc1c(-c2cc(OC(C)C)c3c(C#N)cnn3c2)nnn1C1CCN(C#N)CC1 [Example 196, 4-(4-[3-Cyano-4-iso-propoxypyrazolo[1,5-a]pyridin-6-yl]-5-methyl-1,2,3-triazol-1-yl) piperidine-1-carbonitrile]
Cc1c(-c2cc(O[C@H](C)C3CCC3)c3c(C#N)cnn3c2)nnn1C1CCN(C#N)CC1 [Example 197, 4-(4-[3-Cyano-4-[(1R)-1-cyclobutylethoxy]pyrazolo[1,5-a]pyridin-6-yl]-5-methyl-1,2,3-triazol-1-yl)piperidine-1-carbonitrile]
Cc1c(-c2cc(O[C@H](C)C3CC3)c3c(C#N)cnn3c2)nnn1C1CCN(C#N)CC1 [Example 198, 4-(4-[3-Cyano-4-[(1R)-1-cyclopropylethoxy]pyrazolo[1,5-a]pyridin-6-yl]-5-methyl-1,2,3-triazol-1-yl)piperidine-1-carbonitrile]
Cc1c(-c2cc(O[C@@H](c3ccccn3)C(F)(F)F)c3c(C#N)cnn3c2)nnn1C1CCN(C#N)CC1 [Example 199, 4-(4-[3-Cyano-4-[(1S)-2,2,2-trifluoro-1-(pyridin-2-yl)ethoxy]pyrazolo [1,5-a]pyridin-6-yl]-5-methyl-1,2,3-triazol-1-yl)piperidine-1-carbonitrile]
Cc1c(-c2cc(O[C@H](C)c3ccccn3)n3c(Cl)cnc3c2)nnn1C1CCN(C#N)CC1 [Example 200, 4-(4-[3-Chloro-5-[(1R)-1-(pyridin-2-yl)ethoxy]imidazo [1,2-a]pyridin-7-yl]-5-methyl-1,2,3-triazol-1-yl)piperidine-1-carbonitrile]
